Results are given in words; binding and its absence hold for the method and conditions named. In cells and extracts the contact can be indirect. A yes stands for co-enrichment or nearness to the bait. Other partners may have been found.
Molecular target: Flag-tagged-SIK1 (salt-inducible kinase 1) (UniProt P57059)
Test: affinity purification with mass spectrometry; affinity purification of Flag-tagged SIK1 followed by MS analysis; cells and conditions not stated

The chains behind the UniProt entries cited, without tags or fusion partners.
UniProt P57059: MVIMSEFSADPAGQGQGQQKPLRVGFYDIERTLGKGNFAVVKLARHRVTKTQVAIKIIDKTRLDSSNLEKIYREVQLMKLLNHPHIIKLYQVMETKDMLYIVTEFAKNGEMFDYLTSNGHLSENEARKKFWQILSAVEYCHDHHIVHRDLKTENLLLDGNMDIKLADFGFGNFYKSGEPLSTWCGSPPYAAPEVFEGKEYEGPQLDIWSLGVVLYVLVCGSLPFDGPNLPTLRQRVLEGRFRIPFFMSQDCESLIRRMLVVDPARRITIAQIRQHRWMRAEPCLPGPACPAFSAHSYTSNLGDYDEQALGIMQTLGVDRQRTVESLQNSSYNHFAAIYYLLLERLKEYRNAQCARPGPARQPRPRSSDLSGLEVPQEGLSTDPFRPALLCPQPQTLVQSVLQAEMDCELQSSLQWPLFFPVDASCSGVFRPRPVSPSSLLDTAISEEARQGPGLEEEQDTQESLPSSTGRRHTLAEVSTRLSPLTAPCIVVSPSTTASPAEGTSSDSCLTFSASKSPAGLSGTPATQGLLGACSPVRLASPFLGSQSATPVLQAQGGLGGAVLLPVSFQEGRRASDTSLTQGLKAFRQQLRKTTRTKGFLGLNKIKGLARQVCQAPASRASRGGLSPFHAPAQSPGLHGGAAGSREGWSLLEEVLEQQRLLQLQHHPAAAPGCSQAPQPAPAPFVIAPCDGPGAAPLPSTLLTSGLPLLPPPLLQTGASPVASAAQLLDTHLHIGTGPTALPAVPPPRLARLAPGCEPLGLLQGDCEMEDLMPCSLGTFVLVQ
UniProt Q99496: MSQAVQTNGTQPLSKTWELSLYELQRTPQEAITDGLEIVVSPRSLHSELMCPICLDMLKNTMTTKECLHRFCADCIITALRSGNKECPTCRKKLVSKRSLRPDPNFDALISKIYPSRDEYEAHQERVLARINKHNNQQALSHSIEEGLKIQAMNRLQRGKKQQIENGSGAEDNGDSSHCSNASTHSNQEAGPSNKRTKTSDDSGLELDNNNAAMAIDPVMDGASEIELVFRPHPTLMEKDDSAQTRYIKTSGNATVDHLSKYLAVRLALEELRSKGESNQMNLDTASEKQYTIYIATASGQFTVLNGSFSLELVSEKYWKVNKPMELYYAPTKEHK

## RNF2 found in complex with Flag-SIK1 (from UniProt Q99496 1-336)
  binding: binds

From publication PMC5356871
